Source: PubChem BioAssay AID504834 (National Center for Advancing Translational Sciences (NCATS), 2011)
Screen size: about 320,000 compounds; about 22,000 (6.9%) were called active. The inconclusive results got no clear call from the source; some entries with a clear call stand among them for comparison. Calls follow the shape of the dose curve; as a rule, active = well fitted inhibition curve with a large enough effect; inconclusive = small, poorly fitted or top-dose-only effect, or another doubt; inactive = no such curve, though single readings can be large or run the other way. Potencies of inconclusive entries are doubtful fits and often do not repeat.

experiment: Primary qHTS for delayed death inhibitors of the malarial parasite plastid, 96 hour incubation; details: P. falciparum luciferase reporter growth; series mostly up to 28.7 µM
In short: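 Compounds incubated with erythrocytes infected by luciferase-expressing P. falciparum (2% hematocrit, 0.05% parasitemia final) for 96 hours, 37 C in 5% CO2. Growth inhibition scored as decreased luciferase luminescence.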
% is scaled to controls: 0 for no effect and ±100 for the full control effect; potency is read from the fitted curve at half-maximal effect.

Row | SMILES | Potency | activity change, negative = inhibition
1 | COc1ccccc1CNS(=O)(=O)c1cc2c3c(c1)C(C)C(=O)N3CCC2 (centres undefined) | inactive | 
2 | CC(=O)Nc1cccc(NC(=S)Nc2cccc3ccccc23)c1 | inactive | 
3 | COCCNC(=O)COc1ccc(Oc2ccccc2)cc1 | inconclusive: 0.104 µM [inhibitor, full curve, poor fit] | 
4 | C/C(=N\N1CCCCCC1)c1c(O)n(-c2ccccc2)c(=O)[nH]c1=O | inconclusive: 5.22 µM [inhibitor, partial curve, poor fit] | 
5 | O=C(Nc1c[nH]c(=O)[nH]c1=O)c1cccc([N+](=O)[O-])c1 | inconclusive: 18.5 µM [inhibitor, single point] | 
6 | O=C(c1ccc(F)cc1)N1CCN(C(=O)c2ccc([N+](=O)[O-])cc2)CC1 | inconclusive: 0.738 µM [inhibitor, full curve, poor fit] | 
7 | O=C(Nc1ccccc1)C1CCCN(C(=O)c2ccc(F)cc2)C1 (centres undefined) | inactive | 
8 | COc1cc2ccccc2cc1C(=O)Nc1ccc2oc(=O)ccc2c1 | inactive | 
9 | CC(C)n1ncc2c(C(=O)N3CCN(Cc4ccc(Br)s4)CC3)cc(C3CC3)nc21 | active: 11.7 µM | 
10 | CCN(Cc1ccc(O)cc1)CC1CCCN(CCc2cccc(F)c2)C1 (centres undefined) | active: 11.7 µM | 
11 | COCCn1c(=S)[nH]c2cc(C(=O)N3CCN(c4ccc(F)cc4)CC3)ccc2c1=O | inactive | 
12 | Cc1oc(-c2cccs2)nc1CN1CCN(Cc2ccc(F)c(F)c2)C(CCO)C1 (centres undefined) | inconclusive: 10.4 µM [inhibitor, single point] | 
13 | CC(=O)c1cc2c(cc1NC(=O)c1ccco1)OCCO2 | inconclusive: 3.7 µM [inhibitor, full curve] | 
14 | CCC(C)NC(=O)CN(c1cc(Cl)cc(Cl)c1)S(C)(=O)=O (centres undefined) | inconclusive: 18.5 µM [inhibitor, single point] | 
15 | COc1cc(/C=N/NC(=O)C2COc3ccccc3O2)ccc1O (centres undefined) | inactive | 
16 | CCN(CC)S(=O)(=O)c1cccc(C(=O)NNC(=O)C2=NN(c3ccccc3)C(=O)CC2)c1 | inactive | 
17 | O=C1NC(c2ccncc2)Nc2sc3c(c21)CCCC3 (centres undefined) | inconclusive: 18.5 µM [inhibitor, single point] | 
18 | CCCCN=C1NN=C(c2ccc(C)c(C)c2)CS1 | inconclusive: 4.65 µM [inhibitor, partial curve, poor fit] | 
19 | Cc1ccc(C(=O)N2CCN(c3ccccc3O)CC2)cc1S(=O)(=O)N1CCCCC1 | inactive | 
20 | CCOCCCNC(=O)CCC(=O)NNc1nc2ccccc2c2nc(C)nn12 | inconclusive: 20.8 µM [inhibitor, partial curve, poor fit] | 
21 | CCOc1ccccc1NC(=O)c1ccccc1-c1nc(-c2ccccc2)no1 | active: 8.28 µM | 
22 | O=C(CN1C(=O)NC2(CCc3ccccc32)C1=O)Nc1ccccc1C(F)(F)F (centres undefined) | inconclusive: 18.5 µM [inhibitor, single point] | 
23 | O=C(NC1CCSC1=O)c1cccc(Cl)c1 (centres undefined) |  | inactive: 42.1% [at 5.75 µM]

Row | SMILES | Potency | activity change, negative = inhibition
24 | O=C(NCc1ccccc1)C1=C[C@@H](c2coc3ccccc3c2=O)C[C@@H](OCc2ccc(CO)cc2)O1 | active: 4.15 µM | 
25 | COc1cc2c(cc1OC)CN(c1ccc([N+](=O)[O-])cc1Cl)CC2 | inconclusive: 18.5 µM [inhibitor, single point] | 
26 | O=S(=O)(NC1CC1)c1ccc(S(=O)(=O)N(Cc2ccccn2)C2CCCC2)cc1 | inactive | 
27 | Cc1ccc(-c2nnc(NC3CCCCC3)c3ccccc23)cc1S(=O)(=O)N1CCN(C)CC1 | inconclusive: 1.47 µM [inhibitor, full curve, poor fit] | 
28 | Cc1cccc(CSc2nc3c(c(=O)n2C)SCC3)c1 | inconclusive: 4.15 µM [inhibitor, partial curve, poor fit] | 
29 | COc1ccc(C(=O)N2CCOC2CNC(=O)C(=O)NCCc2ccc(OC)c(OC)c2)cc1 (centres undefined) | inactive | 
30 | O=C(NCC(c1ccco1)N1CCCCC1)c1cc2c(s1)CCCC2 (centres undefined) | active: 1.65 µM | 
31 | CC(C)NC(=O)CN1C(=O)NC(CCc2ccccc2)C1=O (centres undefined) | inconclusive: 2.33 µM [inhibitor, partial curve, poor fit] | 
32 | Cn1cccc1Cc1nnc(SCC(=O)NCc2ccc3c(c2)OCO3)n1CCc1ccccc1 | inconclusive: 10.4 µM [inhibitor, partial curve, poor fit] | 
33 | CC(C)(C)C(=O)CN1C2=NCCCN2c2ccccc21 | inconclusive: 11.7 µM [inhibitor, single point] | 
34 | CC(NC(=O)c1ccco1)c1nc(-c2ccccc2Cl)no1 (centres undefined) | inconclusive: 18.5 µM [inhibitor, single point] | 
35 | COc1ccc(C)cc1NC(=O)CN(c1ccccc1F)S(C)(=O)=O | inactive | 
36 | COc1ccc(C(=O)c2c[nH]c(C(=O)NCCCN3CCOCC3)c2)cc1 | inactive | 
37 | COC(=O)C1=C(c2ccc(F)cc2OCc2ccccc2)C[C@@H]2CC[C@H]1N2C(=O)N1CCOCC1 | inconclusive: 1.65 µM [inhibitor, partial curve, poor fit] | 
38 | Cc1cc(C)c2cc(CN(CCCN(C)C)C(=S)NCc3ccccc3)c(=O)[nH]c2c1 | inconclusive: 18.5 µM [inhibitor, single point] | 
39 | Cc1cc(-n2cccn2)ccc1CN1CCN(C2CCCC2)C(CCO)C1 (centres undefined) | inconclusive: 18.5 µM [inhibitor, single point] | 
40 | CSc1cccc(CN2CCCC(C(=O)Nc3cccc(-n4cccn4)c3)C2)c1 (centres undefined) | inactive | 
41 | Cc1cc(=O)oc2cc(OCC(=O)OCC(=O)N3CCC(C)CC3)ccc12 | inactive | 
42 | COCCNS(=O)(=O)c1ccc(OCC(=O)OC)c(Cl)c1 | inconclusive: 10.4 µM [inhibitor, single point] | 
43 | O=C(c1ccco1)N1CCN(C(=O)c2cc3c(s2)-c2ccccc2OC3)CC1 | inconclusive: 18.5 µM [inhibitor, single point] | 
44 | C=CCON/C(CCC)=C1\C(=O)C(C(=O)OC)C(C)(C)CC1=NC (centres undefined) | inactive | 
45 | O=c1[nH]n2c(=O)c3c([nH]c2c1N=Nc1ccccc1)CCC3 | inconclusive: 18.5 µM [inhibitor, single point] | 
46 | CCCCn1c(N)c(N(CCC(C)C)C(=O)C2CCCN(C(=O)c3ccc(Cl)cc3)C2)c(=O)[nH]c1=O (centres undefined) | inconclusive: 16.5 µM [inhibitor, single point] | 

A draw from above in order of formula weight, rising:
Row | SMILES | Potency | activity change, negative = inhibition
23 | O=C(NC1CCSC1=O)c1cccc(Cl)c1 (centres undefined) |  | inactive: 42.1% [at 5.75 µM]
13 | CC(=O)c1cc2c(cc1NC(=O)c1ccco1)OCCO2 | inconclusive: 3.7 µM [inhibitor, full curve] | 
7 | O=C(Nc1ccccc1)C1CCCN(C(=O)c2ccc(F)cc2)C1 (centres undefined) | inactive | 

Additional structures:

Row | SMILES | Potency | activity change, negative = inhibition
47 | CCOC(=O)c1ccc(NC(=O)c2cc(F)c(F)cc2Cl)cc1 | inactive | 
48 | O=C(N/N=C1\CCCc2ccccc21)c1ccccc1[N+](=O)[O-] | inconclusive: 0.0029 µM [inhibitor, full curve, poor fit] | 
49 | COc1ccc(CN(C(=O)c2snc(C(N)=O)c2N)C(C)C(=O)NCc2ccc(F)cc2)cc1 (centres undefined) | inconclusive: 3.29 µM [inhibitor, full curve, poor fit] | 
50 | CCOC(=O)c1c[nH]c2c(C(F)(F)F)cccc2c1=O | inconclusive: 0.465 µM [inhibitor, full curve, poor fit] | 
51 | O=C(CN1C(=O)CC(c2ccccc2)S(=O)(=O)c2ccccc21)N1CCCCC1 (centres undefined) | inconclusive: 7.38 µM [inhibitor, partial curve] | 
52 | O=C(CSc1cc(Cl)ccc1Cl)NC1CCCC1 | inactive | 
53 | COc1ccc(N2CCN(C(=O)c3ccc(CS(=O)c4cccc(C)c4)o3)CC2)cc1 (centres undefined) | inconclusive: 9.28 µM [inhibitor, partial curve] | 
54 | COc1ccc(-c2ccc(CO)o2)cc1N | inactive | 
55 | COc1ccc(OC)c(NC(=O)C2CCCN2C(=O)C2CCC(C)CC2)c1 (centres undefined) | active: 9.28 µM | 
56 | COc1ccccc1NC(=O)CSc1nnc(CC(=O)Nc2cccc(C(F)(F)F)c2)n1C | inconclusive: 0.522 µM [inhibitor, partial curve] | 
57 | CCC(Sc1ncccc1C(=O)OCCN1CCCC1=O)C(=O)NCc1ccco1 (centres undefined) | inconclusive: 0.233 µM [inhibitor, partial curve, poor fit] | 
58 | COc1ccc2c(c1)c(=O)c(C(=O)c1ccc(Cl)cc1)cn2CC(=O)Nc1ccc(F)cc1 | inconclusive: 18.5 µM [inhibitor, single point] | 
59 | CC1CN(CCCCOc2cccc(Oc3ccccc3)c2)CC(C)O1 (centres undefined) | inconclusive: 2.33 µM [inhibitor, full curve] | 
60 | BrC(=C\c1ccccc1)/C=N/Nc1nc(N2CCOCC2)nc(N2CCOCC2)n1 | inconclusive: 8.28 µM [inhibitor, partial curve] | 
61 | Cc1ccc(-c2n[nH]c(=O)c3ccccc23)c(C)c1 | inconclusive: 18.5 µM [inhibitor, single point] | 
62 | c1ccc(CSc2nnc3ccc(-c4ccco4)nn23)nc1 | inconclusive: 13.1 µM [inhibitor, single point] | 
63 | COc1ccc(NC(=O)CN(C)CC(=O)Nc2cccc3ccccc23)c(OC)c1 | inactive | 
64 | CN(C(=O)c1cccc(Nc2ccc(-c3ccc4c(c3)OCCO4)nn2)c1)C1CCCCC1 | inactive | 
65 | Cc1nn(CCCC(=O)NCc2ccccc2)c(C)c1[N+](=O)[O-] | inconclusive: 3.29 µM [inhibitor, full curve, poor fit] | 
66 | CCN(CC)c1ccc(CN(C)CCc2ccc(OC)c(OC)c2)cc1 | inconclusive: 0.294 µM [inhibitor, single point] | 
67 | CCC(=O)N1c2ccccc2NC2=C(C(=O)CC(C)(C)C2)C1c1cccnc1 (centres undefined) | inconclusive: 8.28 µM [inhibitor, partial curve, poor fit] | 
68 | COc1cc(/C=C2\SC(=S)N(Nc3ncc(C(F)(F)F)cc3Cl)C2=O)ccc1O | inconclusive: 0.0738 µM [inhibitor, full curve, poor fit] | 
69 | CCC(C)COC(=O)c1ccc(C(=O)O)cc1 (centres undefined) | inconclusive: 18.5 µM [inhibitor, single point] | 

Structures above that have an NH in an aromatic ring (nine):
Row | SMILES | Potency | activity change, negative = inhibition
4 | C/C(=N\N1CCCCCC1)c1c(O)n(-c2ccccc2)c(=O)[nH]c1=O | inconclusive: 5.22 µM [inhibitor, partial curve, poor fit] | 
5 | O=C(Nc1c[nH]c(=O)[nH]c1=O)c1cccc([N+](=O)[O-])c1 | inconclusive: 18.5 µM [inhibitor, single point] | 
11 | COCCn1c(=S)[nH]c2cc(C(=O)N3CCN(c4ccc(F)cc4)CC3)ccc2c1=O | inactive | 
36 | COc1ccc(C(=O)c2c[nH]c(C(=O)NCCCN3CCOCC3)c2)cc1 | inactive | 
38 | Cc1cc(C)c2cc(CN(CCCN(C)C)C(=S)NCc3ccccc3)c(=O)[nH]c2c1 | inconclusive: 18.5 µM [inhibitor, single point] | 
45 | O=c1[nH]n2c(=O)c3c([nH]c2c1N=Nc1ccccc1)CCC3 | inconclusive: 18.5 µM [inhibitor, single point] | 
46 | CCCCn1c(N)c(N(CCC(C)C)C(=O)C2CCCN(C(=O)c3ccc(Cl)cc3)C2)c(=O)[nH]c1=O (centres undefined) | inconclusive: 16.5 µM [inhibitor, single point] | 
50 | CCOC(=O)c1c[nH]c2c(C(F)(F)F)cccc2c1=O | inconclusive: 0.465 µM [inhibitor, full curve, poor fit] | 
61 | Cc1ccc(-c2n[nH]c(=O)c3ccccc23)c(C)c1 | inconclusive: 18.5 µM [inhibitor, single point] | 
